In the supplement of paper PMC11006884:
Only a part is listed here, and it is no random draw.

Chains of the proteins cited; added tags and fusions are not shown. Lines headed by an entry give the natural chain unless they say otherwise; changes in a name come on top.
UniProt Q9NW64: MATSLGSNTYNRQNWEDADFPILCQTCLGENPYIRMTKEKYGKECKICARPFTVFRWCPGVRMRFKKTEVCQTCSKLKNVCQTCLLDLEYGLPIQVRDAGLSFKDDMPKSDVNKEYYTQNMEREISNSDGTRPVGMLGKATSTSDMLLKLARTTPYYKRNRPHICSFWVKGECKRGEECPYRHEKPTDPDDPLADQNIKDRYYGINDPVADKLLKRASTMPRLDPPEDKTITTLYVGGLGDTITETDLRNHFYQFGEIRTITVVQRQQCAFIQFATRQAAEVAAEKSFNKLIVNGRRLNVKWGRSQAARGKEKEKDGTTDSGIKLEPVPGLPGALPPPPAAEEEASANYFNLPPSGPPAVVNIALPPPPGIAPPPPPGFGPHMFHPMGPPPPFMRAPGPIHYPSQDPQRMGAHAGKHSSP
UniProt Q9NUQ3: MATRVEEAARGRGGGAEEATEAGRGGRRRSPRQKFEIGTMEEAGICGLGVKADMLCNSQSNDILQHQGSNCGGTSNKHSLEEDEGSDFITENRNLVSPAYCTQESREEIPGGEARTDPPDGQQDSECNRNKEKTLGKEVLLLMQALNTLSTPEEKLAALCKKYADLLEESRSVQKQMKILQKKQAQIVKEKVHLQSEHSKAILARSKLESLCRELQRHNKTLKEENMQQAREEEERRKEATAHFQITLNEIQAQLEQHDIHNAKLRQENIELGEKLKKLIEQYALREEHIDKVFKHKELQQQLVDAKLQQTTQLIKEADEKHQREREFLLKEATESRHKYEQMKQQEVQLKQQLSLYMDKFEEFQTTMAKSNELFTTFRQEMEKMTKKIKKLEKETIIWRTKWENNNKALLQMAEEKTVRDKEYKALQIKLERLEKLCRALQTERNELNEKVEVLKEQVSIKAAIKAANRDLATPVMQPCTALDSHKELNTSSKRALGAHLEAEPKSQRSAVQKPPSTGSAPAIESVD
UniProt Q9NZW5: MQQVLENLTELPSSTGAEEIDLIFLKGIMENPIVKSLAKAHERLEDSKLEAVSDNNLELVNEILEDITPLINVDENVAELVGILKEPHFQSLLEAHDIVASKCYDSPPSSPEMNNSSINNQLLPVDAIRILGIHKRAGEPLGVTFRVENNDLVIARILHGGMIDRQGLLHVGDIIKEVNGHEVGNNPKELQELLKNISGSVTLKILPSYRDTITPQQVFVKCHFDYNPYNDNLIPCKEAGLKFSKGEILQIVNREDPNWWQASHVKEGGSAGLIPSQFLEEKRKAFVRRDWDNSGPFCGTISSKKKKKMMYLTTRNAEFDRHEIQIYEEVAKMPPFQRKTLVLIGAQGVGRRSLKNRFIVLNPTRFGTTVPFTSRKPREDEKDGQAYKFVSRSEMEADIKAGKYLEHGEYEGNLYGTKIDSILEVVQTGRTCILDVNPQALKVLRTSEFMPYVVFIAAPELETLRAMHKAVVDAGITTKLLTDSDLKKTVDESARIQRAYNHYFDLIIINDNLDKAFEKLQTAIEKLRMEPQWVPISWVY
UniProt Q9NY33: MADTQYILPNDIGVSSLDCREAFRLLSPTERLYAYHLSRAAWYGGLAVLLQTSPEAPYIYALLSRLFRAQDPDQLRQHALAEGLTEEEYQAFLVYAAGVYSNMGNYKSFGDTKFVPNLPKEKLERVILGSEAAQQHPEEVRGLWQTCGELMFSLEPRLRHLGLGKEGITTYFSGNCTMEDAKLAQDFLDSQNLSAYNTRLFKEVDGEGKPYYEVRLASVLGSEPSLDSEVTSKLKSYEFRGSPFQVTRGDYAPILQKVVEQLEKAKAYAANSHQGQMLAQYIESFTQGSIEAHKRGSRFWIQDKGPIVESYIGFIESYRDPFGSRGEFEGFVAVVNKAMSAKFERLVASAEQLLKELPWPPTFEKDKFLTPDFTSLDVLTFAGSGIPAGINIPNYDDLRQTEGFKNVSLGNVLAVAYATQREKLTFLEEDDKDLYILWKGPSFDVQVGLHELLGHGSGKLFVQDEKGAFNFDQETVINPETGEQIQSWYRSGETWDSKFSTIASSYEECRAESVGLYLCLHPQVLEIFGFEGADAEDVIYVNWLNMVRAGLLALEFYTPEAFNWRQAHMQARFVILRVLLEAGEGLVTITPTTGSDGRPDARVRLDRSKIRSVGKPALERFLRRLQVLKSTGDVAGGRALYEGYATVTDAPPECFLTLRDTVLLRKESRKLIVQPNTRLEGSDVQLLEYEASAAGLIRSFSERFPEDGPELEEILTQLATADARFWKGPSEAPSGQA
UniProt Q9NVH0: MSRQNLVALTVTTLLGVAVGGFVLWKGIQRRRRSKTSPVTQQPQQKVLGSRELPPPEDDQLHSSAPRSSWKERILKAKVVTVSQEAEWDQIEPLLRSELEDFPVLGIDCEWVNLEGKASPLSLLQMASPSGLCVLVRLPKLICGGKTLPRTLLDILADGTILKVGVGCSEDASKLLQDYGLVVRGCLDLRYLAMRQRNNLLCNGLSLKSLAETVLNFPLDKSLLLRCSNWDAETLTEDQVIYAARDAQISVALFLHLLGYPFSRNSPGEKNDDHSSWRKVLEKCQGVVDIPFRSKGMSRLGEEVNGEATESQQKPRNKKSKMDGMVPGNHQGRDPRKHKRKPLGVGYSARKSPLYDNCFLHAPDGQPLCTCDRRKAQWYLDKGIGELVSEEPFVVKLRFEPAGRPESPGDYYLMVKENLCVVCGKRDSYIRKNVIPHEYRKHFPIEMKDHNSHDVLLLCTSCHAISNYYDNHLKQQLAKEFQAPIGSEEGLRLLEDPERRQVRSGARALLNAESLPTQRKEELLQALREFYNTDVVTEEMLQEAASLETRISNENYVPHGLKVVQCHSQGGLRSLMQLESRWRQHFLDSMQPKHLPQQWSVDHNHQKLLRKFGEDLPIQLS
UniProt Q9UGV2: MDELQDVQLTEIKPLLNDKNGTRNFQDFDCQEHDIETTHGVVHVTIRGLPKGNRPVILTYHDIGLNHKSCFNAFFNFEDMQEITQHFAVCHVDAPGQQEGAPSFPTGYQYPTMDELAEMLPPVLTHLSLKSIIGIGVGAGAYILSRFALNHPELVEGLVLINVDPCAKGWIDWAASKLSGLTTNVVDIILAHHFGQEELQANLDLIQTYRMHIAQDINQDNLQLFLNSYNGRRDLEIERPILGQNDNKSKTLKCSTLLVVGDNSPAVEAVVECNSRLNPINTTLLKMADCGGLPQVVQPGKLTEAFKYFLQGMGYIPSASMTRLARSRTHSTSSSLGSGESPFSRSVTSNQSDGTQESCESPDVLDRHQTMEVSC
UniProt Q9NVR5: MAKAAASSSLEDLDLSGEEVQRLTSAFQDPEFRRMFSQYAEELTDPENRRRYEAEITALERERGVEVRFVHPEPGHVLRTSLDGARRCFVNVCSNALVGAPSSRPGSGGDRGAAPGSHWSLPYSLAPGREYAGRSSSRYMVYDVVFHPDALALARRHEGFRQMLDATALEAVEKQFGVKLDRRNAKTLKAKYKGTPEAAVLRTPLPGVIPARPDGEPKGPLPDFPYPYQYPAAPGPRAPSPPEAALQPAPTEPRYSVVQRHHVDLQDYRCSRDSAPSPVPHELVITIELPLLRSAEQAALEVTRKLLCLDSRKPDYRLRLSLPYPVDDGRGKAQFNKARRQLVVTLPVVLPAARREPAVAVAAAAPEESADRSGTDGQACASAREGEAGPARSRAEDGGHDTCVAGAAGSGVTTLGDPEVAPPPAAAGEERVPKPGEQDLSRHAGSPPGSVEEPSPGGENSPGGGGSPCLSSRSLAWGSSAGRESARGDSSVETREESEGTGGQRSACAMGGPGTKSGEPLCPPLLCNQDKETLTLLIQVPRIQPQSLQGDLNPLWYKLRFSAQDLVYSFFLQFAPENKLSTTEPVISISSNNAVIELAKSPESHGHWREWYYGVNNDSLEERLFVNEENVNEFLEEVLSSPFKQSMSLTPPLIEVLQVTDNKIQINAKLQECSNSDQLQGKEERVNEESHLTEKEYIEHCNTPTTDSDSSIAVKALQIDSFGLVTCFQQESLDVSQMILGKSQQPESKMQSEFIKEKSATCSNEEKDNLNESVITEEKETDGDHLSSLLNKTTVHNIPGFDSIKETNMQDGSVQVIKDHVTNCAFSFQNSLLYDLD
UniProt Q9NZN8, whole entry: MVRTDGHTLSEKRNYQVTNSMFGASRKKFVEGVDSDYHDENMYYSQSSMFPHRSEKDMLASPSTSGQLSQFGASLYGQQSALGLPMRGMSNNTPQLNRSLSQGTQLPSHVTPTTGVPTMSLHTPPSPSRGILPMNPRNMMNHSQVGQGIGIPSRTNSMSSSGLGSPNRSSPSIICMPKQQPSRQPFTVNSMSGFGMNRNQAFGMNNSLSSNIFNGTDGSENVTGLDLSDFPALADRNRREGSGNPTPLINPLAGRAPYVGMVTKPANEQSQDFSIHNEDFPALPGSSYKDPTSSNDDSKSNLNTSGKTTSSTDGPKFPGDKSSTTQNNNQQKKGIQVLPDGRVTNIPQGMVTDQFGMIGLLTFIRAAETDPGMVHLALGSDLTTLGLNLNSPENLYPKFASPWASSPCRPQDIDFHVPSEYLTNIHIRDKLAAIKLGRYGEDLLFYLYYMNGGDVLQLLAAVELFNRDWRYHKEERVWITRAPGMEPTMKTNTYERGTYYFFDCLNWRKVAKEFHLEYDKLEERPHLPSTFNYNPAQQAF
UniProt Q9NVV4: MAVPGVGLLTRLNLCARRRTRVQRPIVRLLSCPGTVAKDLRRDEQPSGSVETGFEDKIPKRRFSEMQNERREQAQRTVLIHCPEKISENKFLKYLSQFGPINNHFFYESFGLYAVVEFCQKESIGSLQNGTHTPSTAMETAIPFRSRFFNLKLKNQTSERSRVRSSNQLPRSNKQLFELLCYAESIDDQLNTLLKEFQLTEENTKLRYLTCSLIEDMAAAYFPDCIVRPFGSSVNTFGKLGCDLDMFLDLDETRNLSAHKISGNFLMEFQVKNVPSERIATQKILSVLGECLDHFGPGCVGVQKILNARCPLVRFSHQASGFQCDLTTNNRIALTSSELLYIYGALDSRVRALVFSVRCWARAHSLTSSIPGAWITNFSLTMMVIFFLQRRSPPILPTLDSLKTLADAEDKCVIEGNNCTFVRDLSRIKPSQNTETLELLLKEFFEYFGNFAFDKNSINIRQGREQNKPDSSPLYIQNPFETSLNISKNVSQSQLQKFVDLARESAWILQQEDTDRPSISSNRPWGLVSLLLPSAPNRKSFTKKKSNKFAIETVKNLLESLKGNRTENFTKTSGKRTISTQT
UniProt Q9NUQ6: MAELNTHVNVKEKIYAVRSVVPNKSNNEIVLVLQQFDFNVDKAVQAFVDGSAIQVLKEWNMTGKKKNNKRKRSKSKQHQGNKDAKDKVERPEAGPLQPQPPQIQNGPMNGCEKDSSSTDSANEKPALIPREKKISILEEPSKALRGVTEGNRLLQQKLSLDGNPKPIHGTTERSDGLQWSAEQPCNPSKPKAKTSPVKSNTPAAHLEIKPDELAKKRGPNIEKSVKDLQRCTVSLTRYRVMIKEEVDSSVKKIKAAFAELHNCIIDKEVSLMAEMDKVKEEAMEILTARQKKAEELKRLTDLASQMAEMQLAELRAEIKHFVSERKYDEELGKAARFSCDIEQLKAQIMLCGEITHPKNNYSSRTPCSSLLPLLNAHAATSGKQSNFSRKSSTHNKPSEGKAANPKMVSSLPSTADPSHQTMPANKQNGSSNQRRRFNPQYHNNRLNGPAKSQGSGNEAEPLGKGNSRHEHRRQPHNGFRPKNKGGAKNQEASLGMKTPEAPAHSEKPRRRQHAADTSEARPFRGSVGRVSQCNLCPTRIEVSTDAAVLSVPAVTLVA
UniProt Q9P2I0: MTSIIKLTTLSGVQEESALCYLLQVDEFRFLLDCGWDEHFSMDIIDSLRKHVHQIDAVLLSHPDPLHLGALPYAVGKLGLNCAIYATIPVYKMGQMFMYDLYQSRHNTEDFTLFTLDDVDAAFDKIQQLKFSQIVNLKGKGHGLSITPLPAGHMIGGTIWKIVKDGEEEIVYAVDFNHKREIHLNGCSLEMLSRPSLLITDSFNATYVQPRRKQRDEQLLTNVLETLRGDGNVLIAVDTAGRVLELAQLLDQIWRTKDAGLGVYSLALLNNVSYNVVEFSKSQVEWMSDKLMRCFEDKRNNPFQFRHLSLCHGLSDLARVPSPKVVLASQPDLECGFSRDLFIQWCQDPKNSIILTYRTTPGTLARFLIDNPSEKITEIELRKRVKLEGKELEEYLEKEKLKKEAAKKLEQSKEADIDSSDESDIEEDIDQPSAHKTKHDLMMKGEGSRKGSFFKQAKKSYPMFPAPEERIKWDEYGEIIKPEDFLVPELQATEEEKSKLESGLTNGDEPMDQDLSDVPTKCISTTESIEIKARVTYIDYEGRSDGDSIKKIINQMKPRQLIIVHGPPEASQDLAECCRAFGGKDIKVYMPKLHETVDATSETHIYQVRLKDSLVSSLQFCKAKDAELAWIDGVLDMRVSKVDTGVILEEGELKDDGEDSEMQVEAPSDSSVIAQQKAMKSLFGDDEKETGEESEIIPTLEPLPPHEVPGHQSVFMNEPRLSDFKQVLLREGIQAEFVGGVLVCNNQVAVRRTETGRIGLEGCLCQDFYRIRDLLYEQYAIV

compound: COC(=O)C#Cc1ccccc1 [methyl 3-phenylpropiolate]; test: log2 ratio of iodoacetamide-alkyne labeling of the cysteine site, DMSO over compound (competition); higher = stronger covalent engagement of the cysteine by the compound, active = 1 or more; conditions: 500 µM; treatment time 1 h; system: HEK293T cell lysate
How it was run: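 HEK293T lysate (2 mg/mL) was incubated with electrophile (500 µM) or vehicle for 1 h at ambient temperature and then with iodoacetamide alkyne for 1 h. Labelled proteins were clicked to sCIP-TMT reagents, pooled, digested, enriched on streptavidin and measured by Orbitrap Eclipse LC-MS/MS with FAIMS, with FragPipe quantification. The per-cysteine log2 competition ratio is mean control-channel reporter intensity over mean compound-channel reporter intensity. Across three replicates with duplicate channels, cysteines quantified in only one replicate were excluded.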

log2 ratio of iodoacetamide-alkyne labeling, inactive:
UniProt Q9NW64_C48 0.105
ABCF2 C411 (UniProt Q9UG63) 0.306
UniProt Q9NUQ3_C480 0.639
PHRF1 C878 (UniProt Q9P1Y6) -0.0465
MTCH1 C385 (UniProt Q9NZJ7) 0.266
MPP6 C236 (UniProt Q9NZW5) 0.488
DPP3 C147 (UniProt Q9NY33) -0.0949
THG1L C279 (UniProt Q9NWX6) 0.394
MRPL39 C335 (UniProt Q9NYK5) 0.184
UniProt Q9NVH0_C284 0.123
ATAD3A C563 (UniProt Q9NVI7) 0.273
NDRG3 C375 (UniProt Q9UGV2) -0.0674
MKRN1 C179 (UniProt Q9UHC7) 0.373
BSDC1 C49 (UniProt Q9NW68) -0.0312
MRPL27 C88 (UniProt Q9P0M9) 0.189
UniProt Q9NVR5_C673 0.698
TMEM161A C33 (UniProt Q9NX61) 0.304
CNOT2 C175 (UniProt Q9NZN8) 0.132
MTPAP C412 (UniProt Q9NVV4) 0.508
ADPRHL2 C132 (UniProt Q9NX46) -0.0495
UniProt Q9P2P1_C1222 0.312
FANCI C1085 (UniProt Q9NVI1) 0.251
ZNRD1 C78 (UniProt Q9P1U0) 0.389
GDE1 C127 (UniProt Q9NZC3) -0.0158
SPATS2L C367 (UniProt Q9NUQ6) 0.00701
RNF181 C10 (UniProt Q9P0P0) 0.0512
UniProt Q9NVH0_C227 0.265
AASS C305 (UniProt Q9UDR5) 0.229
SRP68 C562 (UniProt Q9UHB9) 0.0408
COPG2 C420 (UniProt Q9UBF2) -0.0241
MRPL39 C133 (UniProt Q9NYK5) 0.813
UniProt Q9NVH0_C109 0.141
DDX18 C472 (UniProt Q9NVP1) 0.325
CPSF2 C621 (UniProt Q9P2I0) 0.241
TES C364 (UniProt Q9UGI8) 0.125
KIAA1522 C575 (UniProt Q9P206) 0.349

log2 ratio of iodoacetamide-alkyne labeling, active:
UniProt Q9UBD5_C159 1.13
